The series is described as follows: 16-week dose-ranging study of testosterone ophthalmic solutions in patients with keratoconjunctivitis sicca, serum pharmacokinetics. The series is classed as in vivo, human. The following applies: female and male patients, 16 weeks of dosing. The protocol: Another clinical study entitled “A Multi-Center, Parallel, Randomized, Double-Masked, Vehicle-Controlled, Dose-Ranging Study to Evaluate the Safety, Tolerability and Efficacy of Testosterone 0.01%, 0.1%, and 0.3% Ophthalmic Solutions Administered Twice Daily for 16 weeks in Patients with Keratoconjunctivitis Sicca (KCS)” was conducted to determine the effectiveness of the ocular administration of testosterone in both women and men. This study was a randomized, multi-center, double-masked, parallel-group study of three treatment groups and one vehicle group. Patients were randomized to either 0.01%, 0.1%, 0.3% testosterone or vehicle of 0.3% testosterone ophthalmic solution. […] Serum concentrations of testosterone and dihydrotestosterone were determined by a validated gas chromatography-mass spectrometry (GC-MS) method with a quantitation range for DHT of 0.1 to 100 ng/dL and for testosterone of 1.0 to 1000 ng/dL. Serum concentrations of 3-alpha-androstanediol-glucuronide were quantitated by a validated radioimmunoassay method with a range of quantitation from 0.800 to 100 ng/mL, and serum concentrations of sex hormone binding globulin were determined using a validated two-site immunoradiometric assay (IRMA) method with a range of quantitation of 5 to 320 nmol/L for a 1:100 diluted sample.

Take `C[C@]12CC[C@H]3[C@@H](CCC4=CC(=O)CC[C@@]43C)[C@@H]1CC[C@@H]2O` [testosterone, (17β)-17-Hydroxyandrost-4-en-3-one]: the “serum 3-alpha-androstanediol glucuronide concentration” value is listed as “unaffected” and the “serum sex hormone binding globulin concentration” value was “unaffected”.

Source of the values: patent publication US20080045486A1, “OCULAR ADMINISTRATION OF TESTOSTERONE” (priority 2006, published 2008).
